Laboratory results taken from publication PMC516168.

Target: T1, Mc-VHA-H fused to YFP (M. crystallinum) (UniProt Q8GUB3)
T1 sequence: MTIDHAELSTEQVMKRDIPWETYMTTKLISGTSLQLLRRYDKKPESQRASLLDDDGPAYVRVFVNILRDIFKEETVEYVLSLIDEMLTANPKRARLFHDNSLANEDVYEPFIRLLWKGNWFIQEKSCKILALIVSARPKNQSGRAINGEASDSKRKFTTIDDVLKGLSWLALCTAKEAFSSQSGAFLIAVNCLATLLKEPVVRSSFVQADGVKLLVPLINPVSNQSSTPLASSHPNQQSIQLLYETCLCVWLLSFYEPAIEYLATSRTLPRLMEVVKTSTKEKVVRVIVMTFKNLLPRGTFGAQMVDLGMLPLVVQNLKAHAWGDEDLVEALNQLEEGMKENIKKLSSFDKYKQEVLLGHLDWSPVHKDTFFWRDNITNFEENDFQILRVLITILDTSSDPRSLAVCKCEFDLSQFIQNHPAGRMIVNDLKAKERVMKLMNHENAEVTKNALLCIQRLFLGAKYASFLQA
Test: FRET or BRET; in vivo FRET (CFP donor, YFP acceptor) in co-transformed onion epidermis cells; emission spectra before and after photobleaching of the acceptor

## Mc-VHA-A fused to CFP (M. crystallinum)
  binding: no binding

Results are given in words; binding and its absence hold for the method and conditions named. Binding seen in cells or lysates may run through a third protein. Where a sequence is shown, tags or fusion partners need not be part of it.
